Data from the supplement of paper PMC6411743.
± gives the standard deviation of the averaged measurements. The list shows a part of the results, in another mix than the full data.

By UniProt entry, the sequences of proteins in these tests, tags left out. Where a name states a change or a piece, a line headed by the entry shows the natural chain unless it says otherwise.
UniProt O15037: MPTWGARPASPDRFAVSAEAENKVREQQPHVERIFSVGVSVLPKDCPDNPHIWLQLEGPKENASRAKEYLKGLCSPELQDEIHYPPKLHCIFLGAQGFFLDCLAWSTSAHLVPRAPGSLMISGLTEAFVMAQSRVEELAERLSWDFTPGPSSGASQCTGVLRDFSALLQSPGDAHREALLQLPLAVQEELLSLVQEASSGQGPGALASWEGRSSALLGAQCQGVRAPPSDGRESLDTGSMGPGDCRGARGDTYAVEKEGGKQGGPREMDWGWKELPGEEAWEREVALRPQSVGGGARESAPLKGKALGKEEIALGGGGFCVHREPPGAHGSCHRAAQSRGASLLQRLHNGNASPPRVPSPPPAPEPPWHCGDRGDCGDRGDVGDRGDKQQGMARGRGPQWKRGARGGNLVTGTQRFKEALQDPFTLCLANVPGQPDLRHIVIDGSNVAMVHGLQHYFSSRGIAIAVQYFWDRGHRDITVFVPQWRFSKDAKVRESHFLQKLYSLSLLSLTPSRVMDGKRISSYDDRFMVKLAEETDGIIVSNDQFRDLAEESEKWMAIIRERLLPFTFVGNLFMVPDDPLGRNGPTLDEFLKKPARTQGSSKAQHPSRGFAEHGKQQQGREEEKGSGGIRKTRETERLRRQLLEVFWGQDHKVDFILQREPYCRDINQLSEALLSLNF
UniProt Q04725: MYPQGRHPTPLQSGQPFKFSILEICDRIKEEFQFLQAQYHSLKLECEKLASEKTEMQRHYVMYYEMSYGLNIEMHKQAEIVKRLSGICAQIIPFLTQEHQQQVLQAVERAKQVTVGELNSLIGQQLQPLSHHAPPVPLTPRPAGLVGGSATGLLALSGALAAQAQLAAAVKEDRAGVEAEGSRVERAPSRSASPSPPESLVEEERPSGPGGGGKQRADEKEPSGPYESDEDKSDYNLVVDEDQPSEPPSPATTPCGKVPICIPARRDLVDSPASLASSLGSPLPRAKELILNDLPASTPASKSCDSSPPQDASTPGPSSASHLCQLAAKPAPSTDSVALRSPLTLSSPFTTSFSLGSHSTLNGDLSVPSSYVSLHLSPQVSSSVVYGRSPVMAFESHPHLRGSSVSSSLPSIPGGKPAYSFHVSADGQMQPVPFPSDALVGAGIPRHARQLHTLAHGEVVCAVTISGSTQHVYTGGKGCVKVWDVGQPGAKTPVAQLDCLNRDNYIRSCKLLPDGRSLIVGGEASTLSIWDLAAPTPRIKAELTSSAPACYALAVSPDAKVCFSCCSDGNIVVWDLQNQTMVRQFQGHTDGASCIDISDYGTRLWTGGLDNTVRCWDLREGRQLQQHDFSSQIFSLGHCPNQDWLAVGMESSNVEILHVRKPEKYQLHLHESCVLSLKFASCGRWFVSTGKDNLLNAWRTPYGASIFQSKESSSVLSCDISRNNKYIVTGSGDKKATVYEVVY
UniProt O15397, whole entry: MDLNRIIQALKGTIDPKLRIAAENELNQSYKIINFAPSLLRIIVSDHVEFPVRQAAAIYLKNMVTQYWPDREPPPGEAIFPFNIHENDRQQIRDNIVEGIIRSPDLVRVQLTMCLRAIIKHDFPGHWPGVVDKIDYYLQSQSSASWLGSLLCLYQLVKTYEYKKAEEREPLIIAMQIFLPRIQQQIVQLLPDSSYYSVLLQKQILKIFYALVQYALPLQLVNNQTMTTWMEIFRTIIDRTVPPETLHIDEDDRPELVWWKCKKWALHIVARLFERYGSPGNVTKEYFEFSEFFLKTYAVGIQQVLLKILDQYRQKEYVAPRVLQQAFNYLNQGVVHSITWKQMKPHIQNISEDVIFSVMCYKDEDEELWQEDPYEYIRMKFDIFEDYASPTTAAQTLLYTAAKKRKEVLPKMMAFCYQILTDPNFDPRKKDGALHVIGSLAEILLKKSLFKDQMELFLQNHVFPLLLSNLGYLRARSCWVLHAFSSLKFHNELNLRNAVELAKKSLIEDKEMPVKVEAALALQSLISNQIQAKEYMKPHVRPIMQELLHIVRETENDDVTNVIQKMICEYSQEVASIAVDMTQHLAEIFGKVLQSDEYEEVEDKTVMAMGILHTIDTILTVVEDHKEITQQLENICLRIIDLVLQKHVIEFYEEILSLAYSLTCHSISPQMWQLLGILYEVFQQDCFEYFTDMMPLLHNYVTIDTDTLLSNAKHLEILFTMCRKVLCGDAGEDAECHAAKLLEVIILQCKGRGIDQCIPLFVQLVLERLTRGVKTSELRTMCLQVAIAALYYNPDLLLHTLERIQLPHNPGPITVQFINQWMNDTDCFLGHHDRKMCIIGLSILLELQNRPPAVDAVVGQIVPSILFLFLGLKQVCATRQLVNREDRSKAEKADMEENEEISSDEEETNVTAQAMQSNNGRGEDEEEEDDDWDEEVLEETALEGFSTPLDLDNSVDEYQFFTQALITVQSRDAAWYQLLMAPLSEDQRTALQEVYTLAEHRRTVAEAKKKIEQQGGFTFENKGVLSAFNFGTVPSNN
UniProt O15228: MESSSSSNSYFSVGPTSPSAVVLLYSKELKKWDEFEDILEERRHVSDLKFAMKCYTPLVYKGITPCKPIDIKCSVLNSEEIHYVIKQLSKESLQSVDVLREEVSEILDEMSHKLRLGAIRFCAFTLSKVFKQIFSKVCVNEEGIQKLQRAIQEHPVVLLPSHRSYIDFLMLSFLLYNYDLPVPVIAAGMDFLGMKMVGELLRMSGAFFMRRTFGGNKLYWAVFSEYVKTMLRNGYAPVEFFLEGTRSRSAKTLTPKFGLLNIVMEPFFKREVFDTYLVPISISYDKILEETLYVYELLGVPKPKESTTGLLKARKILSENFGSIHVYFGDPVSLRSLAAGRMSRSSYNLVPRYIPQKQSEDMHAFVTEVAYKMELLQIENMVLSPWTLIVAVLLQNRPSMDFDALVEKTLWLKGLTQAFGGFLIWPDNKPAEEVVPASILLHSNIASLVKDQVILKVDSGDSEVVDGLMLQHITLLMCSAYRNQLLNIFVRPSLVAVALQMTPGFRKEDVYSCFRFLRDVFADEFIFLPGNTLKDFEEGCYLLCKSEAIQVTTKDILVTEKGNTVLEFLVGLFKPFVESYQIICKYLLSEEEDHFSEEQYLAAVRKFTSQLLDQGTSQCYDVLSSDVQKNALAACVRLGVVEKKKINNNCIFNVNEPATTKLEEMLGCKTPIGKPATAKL
UniProt O75264: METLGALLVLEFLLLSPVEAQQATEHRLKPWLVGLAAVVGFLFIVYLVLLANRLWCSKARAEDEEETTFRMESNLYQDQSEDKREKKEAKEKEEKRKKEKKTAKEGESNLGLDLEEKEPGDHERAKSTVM
UniProt O15446, whole entry: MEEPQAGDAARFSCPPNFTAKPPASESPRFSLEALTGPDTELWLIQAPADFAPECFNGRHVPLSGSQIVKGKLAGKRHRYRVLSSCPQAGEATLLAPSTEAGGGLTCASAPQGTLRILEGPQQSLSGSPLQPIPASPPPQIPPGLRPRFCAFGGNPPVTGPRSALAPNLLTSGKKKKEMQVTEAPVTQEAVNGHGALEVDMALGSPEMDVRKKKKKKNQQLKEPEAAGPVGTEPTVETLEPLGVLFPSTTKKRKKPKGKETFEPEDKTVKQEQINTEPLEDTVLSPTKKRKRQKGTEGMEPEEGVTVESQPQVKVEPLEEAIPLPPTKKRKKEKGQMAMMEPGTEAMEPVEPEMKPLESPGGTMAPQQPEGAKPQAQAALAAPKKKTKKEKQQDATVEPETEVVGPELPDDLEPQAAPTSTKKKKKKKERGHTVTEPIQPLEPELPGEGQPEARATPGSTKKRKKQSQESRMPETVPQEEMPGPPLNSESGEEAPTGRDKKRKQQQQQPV
UniProt O14530: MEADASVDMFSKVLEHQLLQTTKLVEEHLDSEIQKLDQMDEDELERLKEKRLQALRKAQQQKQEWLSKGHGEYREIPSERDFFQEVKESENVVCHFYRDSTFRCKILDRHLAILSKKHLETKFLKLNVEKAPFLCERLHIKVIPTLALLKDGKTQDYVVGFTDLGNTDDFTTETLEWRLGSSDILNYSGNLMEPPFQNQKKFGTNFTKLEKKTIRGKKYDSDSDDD

Compound: Nc1ncnc2c1ncn2[C@@H]1O[C@H](COP(=O)(O)OP(=O)(O)NP(=O)(O)O)[C@@H](O)[C@H]1O [adenylyl imidodiphosphate]
Assay: NP40-soluble protein abundance relative to vehicle (solubility fold change) (ratio); higher = more soluble protein in presence of AMP-PNP
Outline: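 In three independent experiments, Jurkat crude lysate made by Dounce homogenisation was treated for 10 min at room temperature and then 3 min at 37 °C with eight concentrations ranging from 0.1 to 10 mM. It was then solubilised with 0.8% NP40 plus benzonase for 60 min at 4 °C and ultracentrifuged. The supernatant was TMT-labelled for LC-MS/MS, and each value is the fold change against the detergent-processed vehicle for the same replicate, using vsn-normalised intensities.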

Target	NP40-soluble protein abundance (concentration: 1mM)	NP40-soluble protein abundance (concentration: 2mM)	NP40-soluble protein abundance (concentration: 4mM)	NP40-soluble protein abundance (concentration: 6mM)	NP40-soluble protein abundance (concentration: 8mM)	NP40-soluble protein abundance (concentration: 10mM)
UniProt O15037	1.01 ± 0.026	1.01 ± 0.018	1.01 ± 0.033	0.981 ± 0.04	0.942 ± 0.011	0.972 ± 0.026
K7EMK7 and related entries (UniProt Q04725)	1 ± 0.022	1.0107 ± 0.0009	1 ± 0.015	1 ± 0.014	0.997 ± 0.015	1.011 ± 0.0099
UniProt O00182 and related entries	0.988 ± 0.029	0.965 ± 0.028	0.989 ± 0.038	0.988 ± 0.011	1.03 ± 0.023	0.994 ± 0.019
IPO8 (UniProt O15397)	0.987 ± 0.041	0.976 ± 0.031	0.975 ± 0.011	0.94 ± 0.022	0.926 ± 0.014	0.931 ± 0.024
GNPAT (UniProt O15228)	0.97 ± 0.021	0.896 ± 0.081	0.959 ± 0.028	0.922 ± 0.013	0.961 ± 0.024	0.893 ± 0.029
K7EKM7 (UniProt O75264)	1 ± 0.035	0.988 ± 0.015	1 ± 0.038	0.971 ± 0.032	0.9753 ± 0.0085	1.01 ± 0.014
UniProt O15446 and related entries	1.03 ± 0.018	1.12 ± 0.1	1.11 ± 0.03	1.12 ± 0.038	1.14 ± 0.055	1.17 ± 0.045
TXNDC9 (UniProt O14530)	0.959 ± 0.097	0.971 ± 0.083	0.935 ± 0.093	0.978 ± 0.12	0.93 ± 0.096	0.936 ± 0.18
